The filed quantity is “Percent Effect” (%).
The controls that fix the scale are not given in the record; negative values are as filed.
The compounds are a random part of those screened.

By UniProt entry, the sequences of proteins in these tests, tags left out. Residues count along the entry.
UniProt I6X8D2, whole entry: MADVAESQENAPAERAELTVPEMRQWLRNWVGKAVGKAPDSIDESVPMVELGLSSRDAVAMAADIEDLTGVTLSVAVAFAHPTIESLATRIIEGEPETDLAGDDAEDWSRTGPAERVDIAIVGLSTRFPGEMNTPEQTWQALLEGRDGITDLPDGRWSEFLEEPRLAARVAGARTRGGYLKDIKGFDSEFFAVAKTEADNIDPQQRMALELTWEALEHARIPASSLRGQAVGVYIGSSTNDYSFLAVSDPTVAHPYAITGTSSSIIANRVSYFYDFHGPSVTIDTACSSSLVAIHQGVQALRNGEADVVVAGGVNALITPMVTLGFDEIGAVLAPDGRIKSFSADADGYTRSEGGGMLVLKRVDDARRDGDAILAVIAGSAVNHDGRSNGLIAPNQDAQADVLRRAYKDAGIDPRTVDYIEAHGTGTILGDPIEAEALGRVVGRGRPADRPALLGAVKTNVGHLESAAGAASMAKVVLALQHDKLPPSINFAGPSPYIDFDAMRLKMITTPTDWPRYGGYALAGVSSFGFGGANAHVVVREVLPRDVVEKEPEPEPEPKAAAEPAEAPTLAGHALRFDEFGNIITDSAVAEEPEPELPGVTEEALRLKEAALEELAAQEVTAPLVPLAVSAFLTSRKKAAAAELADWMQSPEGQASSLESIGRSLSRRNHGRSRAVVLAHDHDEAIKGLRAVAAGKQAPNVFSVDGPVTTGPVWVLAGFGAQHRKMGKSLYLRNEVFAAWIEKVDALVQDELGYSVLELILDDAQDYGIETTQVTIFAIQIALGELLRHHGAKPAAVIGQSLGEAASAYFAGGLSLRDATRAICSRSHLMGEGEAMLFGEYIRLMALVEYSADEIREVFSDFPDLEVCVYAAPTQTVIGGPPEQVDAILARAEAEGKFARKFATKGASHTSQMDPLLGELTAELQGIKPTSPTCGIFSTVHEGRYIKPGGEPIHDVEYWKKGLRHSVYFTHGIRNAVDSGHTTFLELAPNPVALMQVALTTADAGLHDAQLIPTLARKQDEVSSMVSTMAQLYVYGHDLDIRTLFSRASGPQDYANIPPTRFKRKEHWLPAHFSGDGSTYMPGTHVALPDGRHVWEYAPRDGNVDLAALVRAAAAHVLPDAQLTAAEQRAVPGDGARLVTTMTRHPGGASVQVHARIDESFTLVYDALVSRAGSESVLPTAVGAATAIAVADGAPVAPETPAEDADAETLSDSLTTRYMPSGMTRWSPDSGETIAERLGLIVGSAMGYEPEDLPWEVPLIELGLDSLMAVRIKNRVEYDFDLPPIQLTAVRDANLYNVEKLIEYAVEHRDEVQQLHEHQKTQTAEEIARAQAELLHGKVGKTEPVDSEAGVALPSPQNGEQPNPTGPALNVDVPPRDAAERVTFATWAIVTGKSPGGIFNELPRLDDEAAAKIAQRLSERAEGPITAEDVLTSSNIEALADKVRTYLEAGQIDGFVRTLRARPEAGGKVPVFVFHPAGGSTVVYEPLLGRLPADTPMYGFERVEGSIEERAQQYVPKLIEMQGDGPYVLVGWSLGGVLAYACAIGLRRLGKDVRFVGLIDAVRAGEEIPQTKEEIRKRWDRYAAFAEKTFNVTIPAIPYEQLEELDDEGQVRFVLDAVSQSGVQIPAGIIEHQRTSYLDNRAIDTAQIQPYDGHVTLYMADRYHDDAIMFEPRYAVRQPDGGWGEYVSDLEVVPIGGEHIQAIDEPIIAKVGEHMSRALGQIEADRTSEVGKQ
UniProt A4I591, 1-473: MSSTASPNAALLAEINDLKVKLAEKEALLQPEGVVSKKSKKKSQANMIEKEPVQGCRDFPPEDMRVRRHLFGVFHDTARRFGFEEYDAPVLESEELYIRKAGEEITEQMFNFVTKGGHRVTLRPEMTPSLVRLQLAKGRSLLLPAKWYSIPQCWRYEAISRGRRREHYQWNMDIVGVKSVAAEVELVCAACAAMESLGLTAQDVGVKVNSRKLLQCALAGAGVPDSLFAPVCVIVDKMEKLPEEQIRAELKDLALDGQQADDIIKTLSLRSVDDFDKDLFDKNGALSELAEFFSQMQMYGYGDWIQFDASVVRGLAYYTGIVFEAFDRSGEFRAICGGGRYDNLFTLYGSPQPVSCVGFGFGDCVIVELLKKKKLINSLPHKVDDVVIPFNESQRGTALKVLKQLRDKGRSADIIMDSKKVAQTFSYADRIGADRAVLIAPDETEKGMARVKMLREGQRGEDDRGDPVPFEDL

Pks13 thioesterase: 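Polyketide synthase Pks13, Mycobacterium tuberculosis (UniProt I6X8D2). Enzyme assay of the thioesterase domain of polyketide synthase 13; the read-out is not stated. Tested at 30 µM. The record gives no direction; the compounds picked for IC50 retests had high values, so higher reads as stronger inhibition. Of about 67,000 compounds tested this way, about 300 (0.46%) reached 50% or more in at least one test.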
LiHisRS: 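Histidine-tRNA ligase, Leishmania infantum (UniProt A4I591). Enzyme assay of histidyl-tRNA synthetase; the read-out is not stated. Compounds at 30 µM. Higher reads as stronger inhibition (inferred: compounds with an IC50 in retests scored well above the rest). The assay is labelled LdHisRS but filed under L. infantum. Size under these conditions: about 69,000 compounds, about 410 of them at 50% or above in at least one test.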

{"structure": "COc1ccc(CN(CCC#N)CCN2CCOCC2)cc1OC", "Pks13 thioesterase": -4.166, "LiHisRS": 14.29}
{"structure": "Cn1nc(CN2CCCC2)c2c1CN(C(=O)Nc1cccc(F)c1)CC2", "Pks13 thioesterase": -30.86, "LiHisRS": 29.91}
{"structure": "Cc1noc(C)c1CSCc1nc(N)c2ccccc2n1", "Pks13 thioesterase": -26.97, "LiHisRS": 17.65}
{"structure": "CN1CCCC(Cc2cncc(C(=O)N3CCOCC3)c2)C1", "stereo": "stereo not given", "Pks13 thioesterase": -5.008, "LiHisRS": 8}
{"structure": "CC(=O)N1CCC2(CC1)C(=O)N(C)c1c(F)cccc12", "Pks13 thioesterase": -25.96, "LiHisRS": 15.79}
{"structure": "CCn1cnnc1C1CCN(C(=O)c2ccc(C(=O)OC)s2)CC1", "Pks13 thioesterase": -7.082, "LiHisRS": 13.7}
{"structure": "Cc1ccc(CN2C[C@@H](c3ccccc3)[C@@]3(CCNC3=O)C2)o1", "Pks13 thioesterase": -7.121, "LiHisRS": 21.05}
{"structure": "CCc1cnc(N)nc1NC(C)c1ccc(C)c(C)c1", "stereo": "stereo not given", "Pks13 thioesterase": -43.11, "LiHisRS": 38.55}
{"structure": "COCC(=O)N1C[C@@H]2CCCO[C@@H]2[C@H](N(C)Cc2ccco2)C1", "Pks13 thioesterase": -2.514, "LiHisRS": 19.35}
{"structure": "Cc1ccc(CN2CC[C@H]3OCC[C@@H](C(=O)NCC4CC4)[C@@H]3C2)o1", "Pks13 thioesterase": -0.9839, "LiHisRS": 17.14}
{"structure": "CNC(=O)C1CNCCN1C(=O)c1ccc(C(F)(F)F)nc1C", "stereo": "stereo not given", "Pks13 thioesterase": 5.204, "LiHisRS": 10.34}
{"structure": "O=C(C[C@@H]1COC[C@H]2CN(CC3CC3)C[C@@H]12)NCc1cccnc1", "Pks13 thioesterase": 6.143, "LiHisRS": 9.615}
{"structure": "O=C1OCCN1CCN1CCCN(Cc2ccccc2F)CC1", "Pks13 thioesterase": -36.76, "LiHisRS": 21.88}
{"structure": "COc1ccccc1-c1cc(NC(=O)CCC2CCCO2)[nH]n1", "stereo": "stereo not given", "Pks13 thioesterase": -15.56, "LiHisRS": 9.091}
{"structure": "CCn1ccnc1CNc1nccc(-c2cn(C)nc2C)n1", "Pks13 thioesterase": -28.16, "LiHisRS": 16.44}
{"structure": "COCCN1CCC(CNC(=O)C2(c3cc(C)cc(C)c3)CC2)CC1", "Pks13 thioesterase": -20.63, "LiHisRS": 18.75}
{"structure": "Cc1ccnc(N2CCN(C3CCS(=O)(=O)C3)CC2)n1", "stereo": "stereo not given", "Pks13 thioesterase": -14.69, "LiHisRS": 9.859}
{"structure": "Cc1nc(C2CCCN2CCS(C)(=O)=O)no1", "stereo": "stereo not given", "Pks13 thioesterase": -31.45, "LiHisRS": 16.07}
{"structure": "NC(=O)c1nc2c(s1)CCN(C(=O)Nc1cccc(Cl)c1)CC2", "Pks13 thioesterase": 8.015, "LiHisRS": 5.66}
{"structure": "CS(=O)(=O)N1C[C@H]2CNC[C@@]2(C(=O)NCCOc2ccccc2)C1", "Pks13 thioesterase": -25.38, "LiHisRS": 4.301}
{"structure": "CC(C)(C)C(=O)N1CCCC1c1ccc(C(=O)N2CCOCC2)s1", "stereo": "stereo not given", "Pks13 thioesterase": 9.657, "LiHisRS": 19.74}
{"structure": "COCCC1CCN(CC(C)n2cnc3ccccc32)CC1", "stereo": "stereo not given", "Pks13 thioesterase": -5.98, "LiHisRS": 5.495}
{"structure": "CC(=O)N1CCCN(c2cc(C3CN(C)CCO3)nc(C)n2)CC1", "stereo": "stereo not given", "Pks13 thioesterase": -0.4593, "LiHisRS": 10}
{"structure": "O=S(=O)(NCCc1c[nH]c2cc(F)ccc12)C1CCOC1", "stereo": "stereo not given", "Pks13 thioesterase": -7.29, "LiHisRS": -21.05}
{"structure": "CCCN1CCC(NC(=O)c2ccnc(SCC)c2)CC1", "Pks13 thioesterase": 4.048, "LiHisRS": 23.08}
{"structure": "CC(NC(=O)N1CCN(c2cccs2)CC1)c1ccc(C#N)cc1", "stereo": "stereo not given", "Pks13 thioesterase": -29.61, "LiHisRS": -81.03}
{"structure": "CN1CCN(Cc2cn3c(n2)CN(CC2CC2)CC3)CC1", "Pks13 thioesterase": -3.687, "LiHisRS": 19.74}
{"structure": "CN(Cc1ccccc1)C(=O)c1cc2c(c(S(N)(=O)=O)c1)CCC2", "Pks13 thioesterase": 6.762, "LiHisRS": -5.263}
{"structure": "CC(C)Cc1nc(CN(C)c2cc(C(C)C)nc3ccnn23)no1", "Pks13 thioesterase": -0.2275, "LiHisRS": 9.836}
{"structure": "c1cc(COc2ccc(CNC3CCc4ncnn4C3)cc2)ccn1", "stereo": "stereo not given", "Pks13 thioesterase": -12.71, "LiHisRS": 15.74}
{"structure": "O=C(C1CCCO1)N1CCc2onc(-c3ccc(Cl)cc3)c2C1", "stereo": "stereo not given", "Pks13 thioesterase": -14.18, "LiHisRS": 6.383}
{"structure": "Cc1cccc(N2CCC(N3CCCC4(CNC(=O)O4)C3)CC2)c1C", "stereo": "stereo not given", "Pks13 thioesterase": -17.9, "LiHisRS": 20.59}
{"structure": "CCc1nc(CSCc2csc(CS(C)(=O)=O)n2)cs1", "Pks13 thioesterase": 4.853, "LiHisRS": 16.33}
{"structure": "CNc1cc(CCNC(=O)CC(C)C)nc(-c2ccccn2)n1", "Pks13 thioesterase": 18.97, "LiHisRS": 8.451}

Source: ChEMBL document CHEMBL3988442, “University of Dundee, Small-Polar-MMV Screening Library” (2021).